Experimental data taken from US10369166B2 (priority 2014, dated 2019).
Where two headings read alike, the source gives them in different places.

Assays:
[1] = in vivo
[2] = in vivo; cited from earlier work

## NCCC[C@H](N)C(=O)O [Ornithine]
[1]
  LD50: 350 g
[2]
  LD50: 5000 mg/kg
